Data on 48 sequences can be found in the supplement of paper PMC7877785.

± gives the uncertainty stated by the source. Many of these values have a large error.

This data set can be described thus: self-splicing fitness, log relative to wild type (ln ratio); higher = more splicing; Tetrahymena group I intron in knt gene, E. coli kanamycin selection, DiMSum; sequences stand for … in CUCUCU…GGAGGGAAAAGUUAUCAGGCAUGCACCUGGUAGCUAGUCUUUAAACCAAUAGAUUGCAUCGGUUUAAAAGGCAAGACCGUCAAAUUGCGGGAAAGGGGUCAACAGCCGUUCAGUACCAAGUCUCAGGGGAAACUUUGAGAUGGCCUUGCAAAGGGUAUGGUAAUAAGCUGACGGACAUGGUCCUAACCACGCAGCCAAGUCCUAAGUCAACAGAUCUUCUGUUGAUAUGGAUGCAGUUCACAGACUAAAUGUCGGUCGGGGAAGAUGUAUUCUUCUCAUAAGAUAUAGUCGGACCUCUCCUUAAUGGGAGCUAGCGGAUGAAGUGAUGCAACACUGGAGCCGCUGGGAACUAAUUUGUAUGCGAAAGUAUAUUGAUUAGUUUUGGAGUACUCGUGGUCG
In outline: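 Pooled colonies went to amplicon sequencing on an Illumina HiSeq 2500 after six replicate transformations. The plates were LB agar with 100 μg/mL carbenicillin, 50 μM IPTG and 0.2% rhamnose, with or without 25 μg/mL kanamycin, incubated overnight at 37°C or 30°C. The E. coli BL21(DE3) library had all eight P1ex-region intron nucleotides randomised, the intron placed in the knt kanamycin-resistance gene on pET-22b(+). DiMSum fitness is the error-weighted combination of replicate fold changes, kanamycin against none, normalised to wild type.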

Turning to CCGCAGCAAUAUUACGGACC, the “self-splicing fitness (ln)” value (37 °C) is -1.79 ± 0.61.
In the case of ACGGAGCAAUAUUACGGCUA, the “self-splicing fitness (ln)” value is, setting by setting: (30 °C) -1.96 ± 0.21; (37 °C) -0.548 ± 0.14.
Regarding GCGGAGCAAUAUUACGUCUC, the “self-splicing fitness (ln)” value (30 °C) was -4.74 ± 0.73.
For GUUGAGCAAUAUUACGAGGC, the “self-splicing fitness (ln)” value (37 °C) was -1.12 ± 0.6.
Take GCAUAGCAAUAUUACGAUGU: the “self-splicing fitness (ln)” value is -2.82 ± 0.13 (30 °C) and -2.31 ± 0.17 (37 °C).
Take UUUUAGCAAUAUUACGGGCC: the “self-splicing fitness (ln)” value (37 °C) was -2.09 ± 0.78.
On the same count and under the same terms, with CUGGAGCAAUAUUACGUAUC the figure was -3.19 ± 0.53.
For AACUAGCAAUAUUACGCUUU, the “self-splicing fitness (ln)” value is, setting by setting: (30 °C) -2.44 ± 0.097; (37 °C) -1.71 ± 0.12.
The like results for CCUGAGCAAUAUUACGACAA were, in that order, -3.49 ± 0.61 and -3.92 ± 0.72.
Take CUAUAGCAAUAUUACGGCUU: the “self-splicing fitness (ln)” value is, setting by setting: (30 °C) -3.75 ± 0.61; (37 °C) -2.86 ± 0.61.
As to CCGGAGCAAUAUUACGCCAU, the “self-splicing fitness (ln)” value (30 °C) was -3.06 ± 0.76.
Regarding UUGAAGCAAUAUUACGCUAC, the “self-splicing fitness (ln)” value (30 °C) was -4.92 ± 1.
Regarding CAAGAGCAAUAUUACGCAAC, the “self-splicing fitness (ln)” value by setting is: (30 °C) -3.34 ± 0.6; (37 °C) -1.69 ± 0.84.
For ACUUAGCAAUAUUACGCCGC, the “self-splicing fitness (ln)” value (37 °C) was -1.79 ± 0.53.
Regarding CAGCAGCAAUAUUACGUUCC, the “self-splicing fitness (ln)” value (30 °C) is -4.84 ± 0.51.
AUUUAGCAAUAUUACGAGUC: the “self-splicing fitness (ln)” value is -3.56 ± 0.73 (30 °C) and -2.01 ± 0.64 (37 °C).
As for UUGCAGCAAUAUUACGUUCC, for the setting “30 °C”, the “self-splicing fitness (ln)” value is -3.85 ± 0.53.
As to ACUAAGCAAUAUUACGAGGA, the “self-splicing fitness (ln)” value (30 °C) was -2.34 ± 0.23 and the “self-splicing fitness (ln)” value (37 °C) was -2.13 ± 0.2.
In the case of CGUAAGCAAUAUUACGCGUU, the “self-splicing fitness (ln)” value (30 °C) is -3.69 ± 0.36 and the “self-splicing fitness (ln)” value (37 °C) was -2.31 ± 0.32.
Take UGAGAGCAAUAUUACGCUAC: under “37 °C”, the “self-splicing fitness (ln)” value was -1.18 ± 0.67.
As for ACUUAGCAAUAUUACGUUCG, the “self-splicing fitness (ln)” value was -1.52 ± 0.18 (30 °C) and -0.802 ± 0.18 (37 °C).
The like results for GGGGAGCAAUAUUACGGGGA were, in that order, -1.12 ± 0.76 and -2.62 ± 0.76.
In the case of UUACAGCAAUAUUACGACAC, the “self-splicing fitness (ln)” value (37 °C) was -1.67 ± 0.55.
On to UGGUAGCAAUAUUACGAGGG, for which, under “30 °C”, the “self-splicing fitness (ln)” value was -4.45 ± 0.59.
With GGGAAGCAAUAUUACGGUCG, the “self-splicing fitness (ln)” value is 0.00025 ± 0.1 (30 °C) and -0.403 ± 0.14 (37 °C).
For CUUAAGCAAUAUUACGCUUC, the “self-splicing fitness (ln)” value (37 °C) was -2.9 ± 1.1.
Consider UAUGAGCAAUAUUACGCCUC, for which the “self-splicing fitness (ln)” value (30 °C) is -3.38 ± 0.75.
For the sequence GAAUAGCAAUAUUACGGAAU, the “self-splicing fitness (ln)” value (30 °C) is -2.69 ± 0.17 and the “self-splicing fitness (ln)” value (37 °C) was -1.66 ± 0.2.
On to GACCAGCAAUAUUACGCCGC, for which, for the setting “37 °C”, the “self-splicing fitness (ln)” value is -2.41 ± 0.62.
Take GCUUAGCAAUAUUACGGGCC: the “self-splicing fitness (ln)” value (30 °C) is -3.36 ± 0.64.
With UUUUAGCAAUAUUACGUGCA, the “self-splicing fitness (ln)” value by setting is: (30 °C) -2.12 ± 0.17; (37 °C) -1.11 ± 0.18.
CGGGAGCAAUAUUACGAAGC: for the setting “30 °C”, the “self-splicing fitness (ln)” value was -0.772 ± 0.7.
Turning to CUGCAGCAAUAUUACGUAGC, the “self-splicing fitness (ln)” value is, setting by setting: (30 °C) -2.66 ± 0.15; (37 °C) -1.95 ± 0.18.
For CCUGAGCAAUAUUACGGUAC, for the setting “37 °C”, the “self-splicing fitness (ln)” value was -3.39 ± 0.52.
With CAGGAGCAAUAUUACGUUGC, the “self-splicing fitness (ln)” value (30 °C) was -2.74 ± 0.54.
Turning to CGAAAGCAAUAUUACGAACA, the “self-splicing fitness (ln)” value is, setting by setting: (30 °C) -1.92 ± 0.13; (37 °C) -0.112 ± 0.12.
With GUCAAGCAAUAUUACGGACC, for the setting “37 °C”, the “self-splicing fitness (ln)” value was -3 ± 1.1.
For the sequence UUAGAGCAAUAUUACGCGGA, the “self-splicing fitness (ln)” value was -1.29 ± 0.1 (30 °C) and -0.00507 ± 0.11 (37 °C).
Regarding GAUGAGCAAUAUUACGGGAC, the “self-splicing fitness (ln)” value (30 °C) is -5.03 ± 0.59.
For UGGGAGCAAUAUUACGAGGC, the “self-splicing fitness (ln)” value (37 °C) was -1.88 ± 1.2.
Regarding CCGAAGCAAUAUUACGACUC, the “self-splicing fitness (ln)” value (37 °C) was -3.61 ± 0.52.
Consider CAAGAGCAAUAUUACGAGGC, for which the “self-splicing fitness (ln)” value (37 °C) was -2.08 ± 0.64.
Regarding CACCAGCAAUAUUACGACAU, the “self-splicing fitness (ln)” value (30 °C) is -3.726 ± 0.018 and the “self-splicing fitness (ln)” value (37 °C) was -2.66 ± 0.035.
Consider GUACAGCAAUAUUACGAAGG, for which the “self-splicing fitness (ln)” value (30 °C) is -3.72 ± 0.74.
With AAAGAGCAAUAUUACGAUAC, for the setting “30 °C”, the “self-splicing fitness (ln)” value is -3.12 ± 1.1.
Turning to GUUUAGCAAUAUUACGUGCC, the “self-splicing fitness (ln)” value (37 °C) was -0.45 ± 0.63.
Turning to UGCUAGCAAUAUUACGCAAA, the “self-splicing fitness (ln)” value (30 °C) was -3.67 ± 0.6.
On to GUUUAGCAAUAUUACGCAGC, for which the “self-splicing fitness (ln)” value by setting is: (30 °C) -2.09 ± 1.4; (37 °C) -0.681 ± 1.
